Measurements reported in PubChem BioAssay AID2685 (National Center for Advancing Translational Sciences (NCATS), 2010).
The whole screen tested about 320,000 compounds, of which about 2,100 (0.66%) were called active. Inconclusive results, whose numbers are uncertain, are shown with a selection of clear calls. Calls follow the shape of the dose curve; as a rule, active = well fitted inhibition curve with a large enough effect in the signal ratio, with a control signal flat (not every such curve was filed as active); inconclusive = small, poorly fitted or top-dose-only effect, or effect the other way, or a change in a side signal; inactive = flat fitted curve, though single readings scatter; the % refers to the signal ratio. A potency beside an inconclusive call is a rough fit, not a confirmed value.

assay: qHTS Assay for Lipid Storage Modulators in Drosophila S3 Cells; details: BODIPY lipid droplet fluorescence, 18-24 h, cells fed with added oleic acid; lipid storage change, negative = inhibition: at 46.1 µM (top of the series) unless noted
How it was run: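 Drosophila S3 cells got compounds at several concentrations plus oleic acid (400 uM solution). Laser-scanning cytometry with 488 nm excitation read lipid droplets at 500-530 nm and cells at 575-640 nm. Percent activity was relative to 20 uM Triacsin C.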
% is scaled to controls: 0 for no effect and ±100 for the full control effect; potency is read from the fitted curve at half-maximal effect.

SMILES | lipid storage change, negative = inhibition | Potency
C=CCn1c(CNc2ccc(C)cc2)nnc1SCC(=O)N/N=C/c1ccc(O)cc1 | inconclusive: 8.46% | 
CCCn1c(N)c(C(=O)CN(C)CC(=O)Nc2cc(C)ccc2C)c(=O)[nH]c1=O | inactive: 26.4% | 
Cc1ccc(NC(=S)Nc2ccc3nc(-c4ccccn4)c(-c4ccccn4)nc3c2)cc1C | inconclusive: -3.7% | 
CCOC(=O)c1ccc(OCC(=O)c2ccc(O)cc2O)cc1 |  | inconclusive: 0.0046 µM [falling, full curve, poor fit]
CCSc1cc(N2CCCC2)nc(-c2cccc(C)c2)n1 | inconclusive: -115% | 
CN(C)C(=O)COC(=O)[C@H](Cc1ccccc1)NC(=O)c1ccco1 | inconclusive: 51.5% | 
O=C(NC1CCCN(Cc2ccc(Cl)cc2)C1)c1cccc(N2CCCC2=O)c1 (centres undefined) |  | inconclusive: 0.0041 µM [activator, full curve, poor fit]
Cc1noc(C)c1COc1ccccc1C(=O)NNC(=O)c1ccc(F)cc1 | inconclusive: 9.61% | 
CCOC(=O)C1CCN(C(=O)COc2ccc([N+](=O)[O-])cc2)CC1 | inconclusive: -3.59% | 
c1nc(NCCN2CCOCC2)c2sc3nc(N4CCOCC4)c4c(c3c2n1)CCC4 | inconclusive: 0.929% | 
COC(=O)Cn1ncc(N(C)Cc2ccccc2)c(Cl)c1=O | inconclusive: 27.9% | 
CC(C)COc1ccc(C(=O)N(Cc2ccco2)C2CCS(=O)(=O)C2)cc1 (centres undefined) | inconclusive: 8.8% | 
COc1ccc(C2C3=C(Nc4ncnn42)c2ccccc2CC3)cc1OC (centres undefined) |  | inconclusive: 0.82 µM [activator, partial curve]
CC(CCc1ccccc1)NC(=O)C(=O)N1CCOCC1 (centres undefined) | inconclusive: -16.8% | 
CCCCn1c(N)c(N(CCOC)C(=O)c2ccc(N3CCCC3=O)cc2)c(=O)[nH]c1=O | inconclusive: 19.4% | 
O=S(=O)(c1cccc2nsnc12)N1CCCCC1 |  | inconclusive: 29.1 µM [falling, single point]
Cc1ccc(C(=O)C(C)OC(=O)Cc2c[nH]c3ccccc23)cc1 (centres undefined) | inconclusive: 18.8% | 
CC(C)(C)c1ccc(C2=CSC3=NCCN23)cc1 | inconclusive: 13.1% | 
COc1ccc(CCNC(=O)C2CC(c3cccc(F)c3)=NO2)cc1 (centres undefined) | inconclusive: 8.1% | 
Cc1cc2nn(-c3ccc(F)cc3)nc2cc1N | inconclusive: -92.3% | 
N#Cc1ccccc1NC(=O)COC(=O)c1ccc(S(=O)(=O)N2CCCC2)cc1 | inconclusive: -4.93% | 
CCOCCOC(=O)c1cccc(NC(=O)OCC)c1 | inconclusive: 58.1% | 
CCOC(=O)N1CCN(C(=O)C(C)c2ccc([N+](=O)[O-])cc2)CC1 (centres undefined) | inconclusive: -8.69% | 
Cc1onc(-c2c(Cl)cccc2Cl)c1C(=O)NCCCN1CCOCC1 | inconclusive: -2.55% | 
COc1cc(CCC(=O)OCC(=O)Nc2ccccc2C#N)cc(OC)c1OC | inconclusive: 10.3% | 
CC(C)(C)c1cc(C(=O)NNC(=O)c2ccc(Cl)cc2)no1 | inconclusive: 11.4% | 
CN(C)CCNC(=O)C1(O)c2cc(Br)ccc2NC(=O)N1c1ccc(Cl)cc1 (centres undefined) | inconclusive: 24.3% | 

SMILES | lipid storage change, negative = inhibition | Potency
O=C(Nc1ccc(F)cc1)Nc1ccc(N2CCOCC2)c2nonc12 | inconclusive: -34.6% | 
N#Cc1sc2nc3c(c(-c4cccnc4)c2c1N)CCC3 |  | inconclusive: 1.46 µM [rising, full curve]
COc1cc(C(=O)N2CCNCC2)cc(OC)c1OC | inconclusive: -4.04% | 
Cc1ccc(N(CC(=O)NCc2ccco2)C(=O)CNS(=O)(=O)c2ccc(F)cc2)c(C)c1 |  | inconclusive: 0.82 µM [falling, single point]
CC(C)N(CCNC(=O)C1CCCN(c2ncnc3c2nc2n3CCCCC2)C1)Cc1ccccc1 (centres undefined) |  | inconclusive: 18.4 µM [activator, partial curve]
CC(C)(C)c1csc(NC(=O)C2=COCCO2)n1 | inconclusive | 
COc1ccccc1C(=O)NCCCNC(=O)c1ccccn1 | inconclusive: -23.3% | 
Cc1nn(C)cc1C=NCCOCc1ccccc1 | inconclusive: -10.9% | 
Cc1ccccc1-n1nnnc1SCC(N)=O | inconclusive: 4.57% | 
COc1ccc(OCCOc2ccc(/C=C3\C(=N)N4N=C(C)SC4=NC3=O)cc2)cc1 | inconclusive: -2.58% | 
Cn1cnnc1SCC(=O)Nc1ccccc1Oc1ccccc1 | inconclusive: -24.8% | 
CCCCNc1nc(N)ncc1[N+](=O)[O-] | inconclusive: -3.93% | 
CCC(C)Sc1nnc(Cc2cc(=O)[nH]c(=O)[nH]2)n1-c1ccc(F)cc1 (centres undefined) | inconclusive: -38.7% | 
O=C(CNS(=O)(=O)c1ccc([N+](=O)[O-])cc1)N/N=C\c1ccc(O)cc1 | inconclusive: -13.9% | 
COC(=O)c1ccc(NC(=S)N2CCN(Cc3cccc(C)c3)CC2)cc1 | inconclusive: 21.6% | 
CCOc1ccccc1N(C)C(=O)c1cn(C)c(=O)c2ccccc12 | inconclusive: 12% | 
COc1ccccc1C1C(C(=O)c2cc3ccccc3o2)=C(O)C(=O)N1CCN1CCOCC1 (centres undefined) |  | inconclusive: 0.184 µM [falling, full curve, poor fit]
O=C1C(c2ccccc2)SC(=Nc2ccccc2)N1S(=O)(=O)c1ccccc1 (centres undefined) |  | inconclusive: 18.4 µM [falling, single point]
O=C(O)c1ccc(N2C(=O)c3cccnc3C2=O)cc1 | inconclusive: -24.7% | 
CN(CC(=O)Nc1ccc(F)cc1)C(=O)CCc1ccccc1 | inconclusive: 43% | 
CCCCOc1ccc(C2(C)NC(=O)NC2=O)cc1 (centres undefined) |  | inconclusive: 0.092 µM [falling, full curve, poor fit]
CCCCC1(c2ccc(F)cc2)NC(=O)N(CC(=O)N2CCN(C(=O)c3ccco3)CC2)C1=O (centres undefined) | inconclusive: 124% | 
S=c1[nH]nc(-c2n[nH]c3c2CCC3)n1/N=C/C=C/c1ccco1 | inconclusive: 10.1% | 
Nc1nc(SCC(=O)NCCOCCO)nc2sc3c(c12)CCCC3 | inconclusive: 0.837% | 
COc1cc(OC)cc(C(=O)Nc2ccc3c(c2)OCCO3)c1 |  | inconclusive: 29.1 µM [falling, single point]
Cc1cccc(NC(=O)CSCC(=O)N2CCN(Cc3ccc4c(c3)OCO4)CC2)c1 | inconclusive: 12.2% | 
CCc1ccc(OCCCC(=O)Nc2ccc(N3CCCCC3)cc2)cc1 | inconclusive: -22.7% | 

SMILES | lipid storage change, negative = inhibition | Potency
COc1cc(CNc2ccc(O)cc2)cc(Br)c1OCc1ccccc1F |  | inconclusive: 29.1 µM [falling, single point]
NCCCCCC(=O)N/N=C/c1ccc2nccnc2c1 | inconclusive: -33.4% | 
COc1cc(NS(=O)(=O)c2ccc(F)cc2)c(OC)cc1NC(C)=O |  | inconclusive: 0.13 µM [activator, full curve, poor fit]
CN(CC(=O)Nc1cccc(F)c1)C(=O)c1ccc(N2CCCC2)c([N+](=O)[O-])c1 | inconclusive: -9.26% | 
O=c1[nH]cnc2c1sc1nc(C(F)F)cc(-c3ccccc3)c12 |  | inconclusive: 5.17 µM [activator, full curve]
Cn1c(=O)c2c(-c3ccc(C(C)(C)C)cc3)n(CC3CCCO3)cc2n(C)c1=O (centres undefined) |  | inconclusive: 0.92 µM [falling, full curve, poor fit]
Cc1nnc(SC(C)C(=O)Nc2ccc3ccccc3c2)[nH]c1=O (centres undefined) |  | inconclusive: 18.4 µM [activator, single point]
COc1ccc(C2N(c3ccccc3)C(=S)N3CCCN23)cc1 (centres undefined) | inconclusive: -3.04% | 
CCN(CC(=O)NC1CCS(=O)(=O)C1)S(=O)(=O)c1cc([N+](=O)[O-])ccc1C (centres undefined) | inconclusive: 49.5% | 
COc1ccc(N/C(=N/c2nc(C)cc(C)n2)NC(=O)Nc2ccc(Cl)c(Cl)c2)c(OC)c1 |  | inconclusive: 0.116 µM [activator, full curve]
COc1cccc(CN(C(=O)c2cnccn2)C(C(=O)NC2CCCCC2)c2cc(OC)c(OC)c(OC)c2)c1 (centres undefined) |  | inconclusive: 6.51 µM [falling, single point]
Cc1ccccc1Nc1c(-c2ccccc2)nc2ncccn12 | inconclusive: -4.93% | 
COC(=O)c1sccc1N/N=C/c1cccc(OC)c1O | inconclusive: 16.9% | 
CC(C)CNC(=O)c1ccccc1-c1ccccc1C(=O)O | inconclusive: -11% | 
CC1C/C(=N/O)C(C)CN1 (centres undefined) | inconclusive: -43.1% | 
O=C(COc1ccc([N+](=O)[O-])cc1)Nc1nnc(-c2cccnc2)s1 | inconclusive: -26.6% | 
CCCCn1c(N)c(N(CC)C(=O)c2cccc(OC)c2)c(=O)[nH]c1=O | inconclusive: 11.7% | 
O=C(O)c1ccc(CNS(=O)(=O)c2ccc3ccccc3c2)cc1 | inconclusive: 81.3% | 
Cc1cccc(C)c1NS(=O)(=O)c1ccc(-c2ccc(=O)[nH]n2)o1 |  | active: 16.4 µM
CN(Cc1ccsc1)C(=O)CCc1nnc(CCCc2ccccc2)o1 |  | inconclusive: 29.1 µM [falling, single point]
Cn1c(=O)c2c(SC3CCCC3)nc(C3CC3)nc2n(C)c1=O | inconclusive: -37.8% | 
Cc1ccc(NC(=O)CCn2c(=O)[nH]c3ccsc3c2=O)cc1 | inconclusive: -6.98% | 
COC(=O)c1ccc(NC(=O)C2CCN(C(=O)Nc3ccccc3)CC2)cc1 | inconclusive: -15.8% | 
O=C(NCc1ccco1)C1CCCN1S(=O)(=O)c1ccccc1C(F)(F)F (centres undefined) |  | inconclusive: 0.0073 µM [falling, full curve, poor fit]
Cc1cc(C(=O)COC(=O)Cc2n[nH]c(=O)c3ccccc23)c(C)n1-c1ccc2c(c1)OCCO2 |  | inconclusive: 29.1 µM [falling, single point]

Structural class, the compounds so far containing a thiophene ring, fused or not (seven)
SMILES | lipid storage change, negative = inhibition | Potency
c1nc(NCCN2CCOCC2)c2sc3nc(N4CCOCC4)c4c(c3c2n1)CCC4 | inconclusive: 0.929% | 
N#Cc1sc2nc3c(c(-c4cccnc4)c2c1N)CCC3 |  | inconclusive: 1.46 µM [rising, full curve]
Nc1nc(SCC(=O)NCCOCCO)nc2sc3c(c12)CCCC3 | inconclusive: 0.837% | 
O=c1[nH]cnc2c1sc1nc(C(F)F)cc(-c3ccccc3)c12 |  | inconclusive: 5.17 µM [activator, full curve]
COC(=O)c1sccc1N/N=C/c1cccc(OC)c1O | inconclusive: 16.9% | 
CN(Cc1ccsc1)C(=O)CCc1nnc(CCCc2ccccc2)o1 |  | inconclusive: 29.1 µM [falling, single point]
Cc1ccc(NC(=O)CCn2c(=O)[nH]c3ccsc3c2=O)cc1 | inconclusive: -6.98% | 
